From patent US7119077

Chains of the proteins cited; added tags and fusions are not shown. Where a name states a change or a piece, a line headed by the entry shows the natural chain unless it says otherwise. Chains listed by the source or under a name are the forms on record and can include a tag or linker.
UniProt P37230: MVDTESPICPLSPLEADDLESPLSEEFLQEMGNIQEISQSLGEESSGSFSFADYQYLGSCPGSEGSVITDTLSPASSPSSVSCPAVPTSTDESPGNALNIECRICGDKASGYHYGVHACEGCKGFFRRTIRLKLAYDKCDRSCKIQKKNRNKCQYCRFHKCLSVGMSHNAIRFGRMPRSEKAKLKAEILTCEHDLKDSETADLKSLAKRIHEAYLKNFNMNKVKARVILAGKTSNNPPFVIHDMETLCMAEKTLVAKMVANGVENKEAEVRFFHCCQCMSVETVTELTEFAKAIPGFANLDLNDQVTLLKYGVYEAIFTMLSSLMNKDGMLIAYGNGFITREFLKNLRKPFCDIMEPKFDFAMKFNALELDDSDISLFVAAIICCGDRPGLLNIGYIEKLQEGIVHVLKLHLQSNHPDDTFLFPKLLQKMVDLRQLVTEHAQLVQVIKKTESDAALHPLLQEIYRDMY
EcR/usp complexes (embryo extract) (Drosophila melanogaster), one chain, as listed by the source, chain 1 of 2: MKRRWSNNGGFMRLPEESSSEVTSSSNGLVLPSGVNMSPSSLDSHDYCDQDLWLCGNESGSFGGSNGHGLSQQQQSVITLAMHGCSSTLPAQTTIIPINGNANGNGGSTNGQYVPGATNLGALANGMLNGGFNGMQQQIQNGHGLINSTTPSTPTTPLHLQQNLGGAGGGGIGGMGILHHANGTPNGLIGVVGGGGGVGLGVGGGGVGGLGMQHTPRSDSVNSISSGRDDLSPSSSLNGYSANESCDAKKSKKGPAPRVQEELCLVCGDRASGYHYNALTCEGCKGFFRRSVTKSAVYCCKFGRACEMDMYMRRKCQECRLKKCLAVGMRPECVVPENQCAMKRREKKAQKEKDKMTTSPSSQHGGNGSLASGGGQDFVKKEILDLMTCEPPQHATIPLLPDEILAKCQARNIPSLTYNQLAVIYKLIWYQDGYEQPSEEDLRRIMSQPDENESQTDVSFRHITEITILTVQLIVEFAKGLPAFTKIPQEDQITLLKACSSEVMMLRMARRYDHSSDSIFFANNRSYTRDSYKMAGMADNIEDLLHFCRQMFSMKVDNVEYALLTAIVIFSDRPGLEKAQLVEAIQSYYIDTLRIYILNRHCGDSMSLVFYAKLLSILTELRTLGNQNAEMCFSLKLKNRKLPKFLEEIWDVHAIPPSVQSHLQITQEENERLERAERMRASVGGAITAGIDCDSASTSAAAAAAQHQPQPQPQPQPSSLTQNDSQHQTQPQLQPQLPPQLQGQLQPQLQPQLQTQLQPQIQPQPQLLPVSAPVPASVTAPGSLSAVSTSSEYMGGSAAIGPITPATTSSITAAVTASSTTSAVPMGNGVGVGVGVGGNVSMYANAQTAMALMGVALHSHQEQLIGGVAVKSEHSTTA
RARα + usp of S2 or embryo extract (Homo sapiens / Drosophila melanogaster), one chain, as listed by the source, chain 1 of 2: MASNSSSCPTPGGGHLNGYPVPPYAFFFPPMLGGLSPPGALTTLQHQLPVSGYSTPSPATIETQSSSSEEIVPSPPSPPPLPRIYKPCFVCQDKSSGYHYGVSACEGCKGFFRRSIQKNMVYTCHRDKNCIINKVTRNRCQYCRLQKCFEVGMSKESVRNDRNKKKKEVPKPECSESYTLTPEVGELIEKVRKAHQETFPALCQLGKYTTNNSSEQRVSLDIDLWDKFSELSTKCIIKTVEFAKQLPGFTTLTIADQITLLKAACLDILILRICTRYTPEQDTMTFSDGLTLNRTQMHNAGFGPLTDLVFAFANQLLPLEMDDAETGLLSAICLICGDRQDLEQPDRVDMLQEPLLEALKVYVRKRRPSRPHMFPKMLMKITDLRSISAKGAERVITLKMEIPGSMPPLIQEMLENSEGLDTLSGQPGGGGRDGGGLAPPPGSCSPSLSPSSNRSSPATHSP
EcR/usp complexes (embryo extract) (Drosophila melanogaster), one chain, as listed by the source, chain 2 of 2: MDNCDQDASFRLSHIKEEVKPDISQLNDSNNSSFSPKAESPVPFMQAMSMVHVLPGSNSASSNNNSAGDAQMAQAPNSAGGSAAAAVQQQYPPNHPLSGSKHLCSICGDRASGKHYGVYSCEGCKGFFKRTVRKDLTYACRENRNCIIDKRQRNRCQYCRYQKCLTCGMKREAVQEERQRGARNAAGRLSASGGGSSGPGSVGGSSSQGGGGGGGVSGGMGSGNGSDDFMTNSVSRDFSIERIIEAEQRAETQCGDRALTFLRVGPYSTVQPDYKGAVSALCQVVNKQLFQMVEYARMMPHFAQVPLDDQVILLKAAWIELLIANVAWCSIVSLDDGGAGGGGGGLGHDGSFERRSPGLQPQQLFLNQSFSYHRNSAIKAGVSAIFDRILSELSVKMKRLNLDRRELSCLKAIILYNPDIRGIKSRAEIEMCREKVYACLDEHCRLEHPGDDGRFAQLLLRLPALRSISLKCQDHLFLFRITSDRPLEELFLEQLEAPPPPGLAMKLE

What was measured:
[1] = tested on: GEcR (GR N-terminal domain-EcR fusion) + usp EcR V258R,Q259P,E260P,P331L (Drosophila melanogaster); assay: activity in cells; details: CAT induction by 20-OH-ecdysone, CV1 cells; none with GEcR alone; protein in cells
[2] = biological target: PPAR (rat) (Rattus norvegicus) (UniProt P37230); assay: EMSA; details: receptor alone, very little or no binding; protein translated in vitro; label: 32P
[3] = tested on: EcR/usp complexes (embryo extract) (Drosophila melanogaster); assay: EMSA; details: embryo extract 5-10 ug; usp antibody supershift; protein in an extract; label: 32P
[4] = tested on: EcR/usp complex (Schneider S2 cell extract) (Drosophila melanogaster); assay: EMSA; details: S2 extract; major complex supershifted by usp antibody; protein in an extract; label: 32P
[5] = biological target: T1, TRβ (human) (Homo sapiens) (UniProt P10828); assay: EMSA; details: receptor alone, very little or no binding; protein translated in vitro; label: 32P
T1 sequence (looked up, limits assumed): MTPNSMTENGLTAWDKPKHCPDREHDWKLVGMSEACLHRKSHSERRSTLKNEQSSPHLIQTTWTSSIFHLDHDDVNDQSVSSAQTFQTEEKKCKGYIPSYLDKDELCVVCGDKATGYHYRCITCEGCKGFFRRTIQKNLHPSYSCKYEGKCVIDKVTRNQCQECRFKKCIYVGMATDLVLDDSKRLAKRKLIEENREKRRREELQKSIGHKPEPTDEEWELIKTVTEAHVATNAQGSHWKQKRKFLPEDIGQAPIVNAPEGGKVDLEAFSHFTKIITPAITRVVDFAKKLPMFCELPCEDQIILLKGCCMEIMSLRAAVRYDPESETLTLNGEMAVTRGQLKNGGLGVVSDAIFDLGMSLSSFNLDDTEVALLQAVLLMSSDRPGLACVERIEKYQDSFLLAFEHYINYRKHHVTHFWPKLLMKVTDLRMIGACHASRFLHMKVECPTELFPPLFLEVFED

[6] = tested on: RARα + usp of S2 or embryo extract (Homo sapiens / Drosophila melanogaster); assay: EMSA; details: extract dramatically enhances binding; supershifted by usp antibody; protein in an extract; protein details: RARα in vitro translated, usp from fly extract; label: 32P
[7] = biological target: T2, VDR (human) (Homo sapiens) (UniProt P11473); assay: EMSA; details: receptor alone, very little or no binding; protein translated in vitro; label: 32P
T2 sequence (looked up, limits assumed): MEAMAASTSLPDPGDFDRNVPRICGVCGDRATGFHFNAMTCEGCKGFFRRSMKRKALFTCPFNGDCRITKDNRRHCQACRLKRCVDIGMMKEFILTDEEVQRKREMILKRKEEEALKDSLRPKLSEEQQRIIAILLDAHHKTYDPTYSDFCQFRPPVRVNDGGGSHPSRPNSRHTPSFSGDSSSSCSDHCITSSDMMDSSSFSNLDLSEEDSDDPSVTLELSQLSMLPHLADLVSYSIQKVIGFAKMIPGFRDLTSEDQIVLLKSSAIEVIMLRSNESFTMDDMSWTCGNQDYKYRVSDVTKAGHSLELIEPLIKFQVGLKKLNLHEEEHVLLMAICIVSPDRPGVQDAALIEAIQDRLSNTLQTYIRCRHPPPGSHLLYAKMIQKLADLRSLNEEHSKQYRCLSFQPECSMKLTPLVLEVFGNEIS

AGCTCGATGGACAAGTGCATTGAACCCTTGAGCTACCTGTTCACGTAACTTGGGAACTTCGA (double strand) [ΔMTV-EcRE5-CAT reporter EcRE oligonucleotide (5 copies)]
activity on this sequence [1]: active

AGGACAAAGGTCA (double strand) [AOX-PPARE (DR1)]
binding result [2]: binds more weakly

ATTGGACAAGTGCATTGAACCCTTGTCTCT (double strand) [hsp27-EcRE]
binding result [3]: binds
binding result [4]: binds

GGGTCATTTCAGGTCC (double strand) [MLV-TRE (DR4)]
binding result [5]: binds more weakly

GGTTCACCGAAAGTTCA (double strand) [βRARE (DR5)]
binding result [6]: binds

GGTTCACGAGGTTCA (double strand) [SPP1-VDRE (DR3, printed SSP1)]
binding result [7]: binds more weakly

For some of these results: A weaker result is weaker than the reference pair of the same experiment. For some of these results: Where a protein sequence is shown, tags need not be part of it. For some of these results: Where cells or extracts were used, other partners may take part. For some of these results: The exact form of at least one protein or probe is not confirmed.
